Experimental data reported in article PMC11251186, “Higher-order structure and proteoforms of co-occurring C4b-binding protein assemblies in human serum” (The EMBO Journal, 2024).
No constants are given. Whether binding was seen depends on the method and setting.

T1: vitamin K-dependent protein S (ProS) (human), P07225
T1 chain: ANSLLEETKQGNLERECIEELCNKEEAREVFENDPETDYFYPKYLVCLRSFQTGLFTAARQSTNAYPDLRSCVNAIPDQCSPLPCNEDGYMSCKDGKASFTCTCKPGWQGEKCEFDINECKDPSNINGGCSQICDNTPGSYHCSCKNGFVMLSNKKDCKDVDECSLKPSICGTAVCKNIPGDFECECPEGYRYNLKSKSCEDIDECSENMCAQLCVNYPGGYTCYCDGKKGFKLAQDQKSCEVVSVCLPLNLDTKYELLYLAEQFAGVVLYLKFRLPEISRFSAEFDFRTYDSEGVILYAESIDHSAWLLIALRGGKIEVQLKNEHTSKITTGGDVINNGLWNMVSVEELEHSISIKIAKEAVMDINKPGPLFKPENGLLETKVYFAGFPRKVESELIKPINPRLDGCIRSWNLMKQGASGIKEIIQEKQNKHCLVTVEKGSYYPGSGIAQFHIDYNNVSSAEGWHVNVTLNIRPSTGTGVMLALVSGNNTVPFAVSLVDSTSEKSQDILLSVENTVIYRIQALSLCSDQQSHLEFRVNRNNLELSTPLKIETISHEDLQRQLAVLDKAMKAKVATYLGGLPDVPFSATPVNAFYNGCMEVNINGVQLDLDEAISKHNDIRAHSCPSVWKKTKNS

T2: vitamin K-dependent protein S (ProS) (human, UniProt P07225 42-676, N-glycans at N499, N509, N530)
T2 construct: vitamin K-dependent protein S (ProS), human serum protein; GLA domain, four EGF-like domains (E1-E4), two laminin G-like domains (LG1-2); without signal peptide and propeptide; source: purified from pooled plasma of more than 16 healthy donors together with C4BP (bought: Complement Technology, Inc); endogenous, pooled healthy donor serum (SEC LC-MS)
T2 sequence (looked up): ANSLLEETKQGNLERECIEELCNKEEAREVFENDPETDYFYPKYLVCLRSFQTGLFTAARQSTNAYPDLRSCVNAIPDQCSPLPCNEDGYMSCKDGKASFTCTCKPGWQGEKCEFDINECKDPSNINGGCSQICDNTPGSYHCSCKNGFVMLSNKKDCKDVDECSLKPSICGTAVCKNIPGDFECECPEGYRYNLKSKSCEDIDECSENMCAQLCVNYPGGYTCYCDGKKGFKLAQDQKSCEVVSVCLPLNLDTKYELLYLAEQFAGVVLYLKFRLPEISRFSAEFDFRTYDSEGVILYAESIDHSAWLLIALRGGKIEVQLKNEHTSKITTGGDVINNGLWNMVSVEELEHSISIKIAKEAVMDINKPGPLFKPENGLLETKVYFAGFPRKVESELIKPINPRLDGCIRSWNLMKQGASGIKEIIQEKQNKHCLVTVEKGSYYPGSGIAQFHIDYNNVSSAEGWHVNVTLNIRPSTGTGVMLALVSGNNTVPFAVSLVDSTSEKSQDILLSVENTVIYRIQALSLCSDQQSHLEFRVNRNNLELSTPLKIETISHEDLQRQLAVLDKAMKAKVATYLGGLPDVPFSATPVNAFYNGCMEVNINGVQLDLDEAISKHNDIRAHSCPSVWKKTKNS


How the values were obtained:
[1] = target: T1, vitamin K-dependent protein S (ProS) …; experiment: SEC; SEC LC-MS of pooled healthy donor serum in triplicate (dataset of Doorduijn et al, 2022, examined here); iBAQ of each chain per fraction; details: remark: other sources report otherwise
[2] = target: T1, vitamin K-dependent protein S (ProS) …; experiment: mass photometry; native C4BP, 16 nM in PBS pH 7.4; both purified; details: remark: other sources report otherwise
[3] = target: T2, vitamin K-dependent protein S (ProS); experiment: native MS; Orbitrap charge detection MS (CDMS) of acidified (denatured) C4BP, formic acid added (pH ~2); disulfide bonds preserved; both purified
[4] = target: T2, vitamin K-dependent protein S (ProS); experiment: mass photometry; acidified (denatured) C4BP, 16 nM in PBS adjusted to pH 2 with formic acid; both purified

Row | Binder | binding [1] | binding [2] | binding [3] | binding [4]
1 | vitamin K-dependent protein S (ProS), P07225 42-676 (protein, here or on the partner: N-glycans at N499, N509, N530; N-glycans at N499, N509, N530) ANSLLEETKQGNLERECIEELCNKEEAREVFENDPETDYFYPKYLVCLRSFQTGLFTAARQSTNAYPDLRSCVNAIPDQCSPLPCNEDGYMSCKDGKASFTCTCKPGWQGEKCEFDINECKDPSNINGGCSQICDNTPGSYHCSCKNGFVMLSNKKDCKDVDECSLKPSICGTAVCKNIPGDFECECPEGYRYNLKSKSCEDIDECSENMCAQLCVNYPGGYTCYCDGKKGFKLAQDQKSCEVVSVCLPLNLDTKYELLYLAEQFAGVVLYLKFRLPEISRFSAEFDFRTYDSEGVILYAESIDHSAWLLIALRGGKIEVQLKNEHTSKITTGGDVINNGLWNMVSVEELEHSISIKIAKEAVMDINKPGPLFKPENGLLETKVYFAGFPRKVESELIKPINPRLDGCIRSWNLMKQGASGIKEIIQEKQNKHCLVTVEKGSYYPGSGIAQFHIDYNNVSSAEGWHVNVTLNIRPSTGTGVMLALVSGNNTVPFAVSLVDSTSEKSQDILLSVENTVIYRIQALSLCSDQQSHLEFRVNRNNLELSTPLKIETISHEDLQRQLAVLDKAMKAKVATYLGGLPDVPFSATPVNAFYNGCMEVNINGVQLDLDEAISKHNDIRAHSCPSVWKKTKNS | no binding | no binding | – | –
2 | vitamin K-dependent protein S (ProS) (protein, N-glycans at N499, N509, N530) ANSLLEETKQGNLERECIEELCNKEEAREVFENDPETDYFYPKYLVCLRSFQTGLFTAARQSTNAYPDLRSCVNAIPDQCSPLPCNEDGYMSCKDGKASFTCTCKPGWQGEKCEFDINECKDPSNINGGCSQICDNTPGSYHCSCKNGFVMLSNKKDCKDVDECSLKPSICGTAVCKNIPGDFECECPEGYRYNLKSKSCEDIDECSENMCAQLCVNYPGGYTCYCDGKKGFKLAQDQKSCEVVSVCLPLNLDTKYELLYLAEQFAGVVLYLKFRLPEISRFSAEFDFRTYDSEGVILYAESIDHSAWLLIALRGGKIEVQLKNEHTSKITTGGDVINNGLWNMVSVEELEHSISIKIAKEAVMDINKPGPLFKPENGLLETKVYFAGFPRKVESELIKPINPRLDGCIRSWNLMKQGASGIKEIIQEKQNKHCLVTVEKGSYYPGSGIAQFHIDYNNVSSAEGWHVNVTLNIRPSTGTGVMLALVSGNNTVPFAVSLVDSTSEKSQDILLSVENTVIYRIQALSLCSDQQSHLEFRVNRNNLELSTPLKIETISHEDLQRQLAVLDKAMKAKVATYLGGLPDVPFSATPVNAFYNGCMEVNINGVQLDLDEAISKHNDIRAHSCPSVWKKTKNS | – | – | no binding (condition: acidified with formic acid (pH ~2)) | no binding (condition: acidified with formic acid (pH 2))
